According to the supplement of paper PMC12823440, “Inhibitors supercharge kinase turnover through native proteolytic circuits” (Nature, 2025):
Counter-ions that a name gives are not always drawn. Some of the results follow. Hit calls seldom repeat between salt and free forms of one compound.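 Kinases were expressed as nanoluciferase fusions in K562 cells and luminescence was read every 4 h between 2 and 18 h as percent of control, DMSO set to 100% and a positive control to 0%. A time point counts as decreased when the signal drops significantly (2 sigma). The hit call is the authors' own, does not follow from the count of time points alone, and its rule is not shown.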

Sequences of proteins named here, by UniProt entry; tags and fusion partners are left off. A change or cut given only in a name is not applied to a line headed by its entry.
UniProt P29317, whole entry: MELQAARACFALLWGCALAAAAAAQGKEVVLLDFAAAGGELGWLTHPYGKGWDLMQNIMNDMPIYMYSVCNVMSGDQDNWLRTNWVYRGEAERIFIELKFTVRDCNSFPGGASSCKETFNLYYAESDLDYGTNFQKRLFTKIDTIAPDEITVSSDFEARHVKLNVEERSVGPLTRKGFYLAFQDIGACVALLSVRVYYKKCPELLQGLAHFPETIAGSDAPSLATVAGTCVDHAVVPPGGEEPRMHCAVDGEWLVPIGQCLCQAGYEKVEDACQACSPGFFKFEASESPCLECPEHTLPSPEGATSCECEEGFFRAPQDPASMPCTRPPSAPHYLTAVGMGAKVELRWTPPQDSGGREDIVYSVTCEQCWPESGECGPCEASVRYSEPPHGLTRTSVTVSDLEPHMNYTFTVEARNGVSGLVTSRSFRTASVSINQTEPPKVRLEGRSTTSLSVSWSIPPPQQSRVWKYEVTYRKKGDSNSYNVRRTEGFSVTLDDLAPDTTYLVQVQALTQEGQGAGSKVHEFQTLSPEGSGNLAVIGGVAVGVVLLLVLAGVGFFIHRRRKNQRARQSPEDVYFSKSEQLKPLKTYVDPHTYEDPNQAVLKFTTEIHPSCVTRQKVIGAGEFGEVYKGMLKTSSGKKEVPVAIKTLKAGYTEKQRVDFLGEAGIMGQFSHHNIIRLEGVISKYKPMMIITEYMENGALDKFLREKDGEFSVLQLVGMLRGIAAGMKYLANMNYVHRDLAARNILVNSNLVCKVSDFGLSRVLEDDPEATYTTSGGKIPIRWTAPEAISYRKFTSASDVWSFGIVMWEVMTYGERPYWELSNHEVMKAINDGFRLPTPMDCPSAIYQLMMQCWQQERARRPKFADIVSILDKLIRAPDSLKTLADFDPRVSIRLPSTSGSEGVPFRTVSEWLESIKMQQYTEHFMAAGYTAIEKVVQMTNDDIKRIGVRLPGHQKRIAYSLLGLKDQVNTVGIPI
UniProt P21860, whole entry: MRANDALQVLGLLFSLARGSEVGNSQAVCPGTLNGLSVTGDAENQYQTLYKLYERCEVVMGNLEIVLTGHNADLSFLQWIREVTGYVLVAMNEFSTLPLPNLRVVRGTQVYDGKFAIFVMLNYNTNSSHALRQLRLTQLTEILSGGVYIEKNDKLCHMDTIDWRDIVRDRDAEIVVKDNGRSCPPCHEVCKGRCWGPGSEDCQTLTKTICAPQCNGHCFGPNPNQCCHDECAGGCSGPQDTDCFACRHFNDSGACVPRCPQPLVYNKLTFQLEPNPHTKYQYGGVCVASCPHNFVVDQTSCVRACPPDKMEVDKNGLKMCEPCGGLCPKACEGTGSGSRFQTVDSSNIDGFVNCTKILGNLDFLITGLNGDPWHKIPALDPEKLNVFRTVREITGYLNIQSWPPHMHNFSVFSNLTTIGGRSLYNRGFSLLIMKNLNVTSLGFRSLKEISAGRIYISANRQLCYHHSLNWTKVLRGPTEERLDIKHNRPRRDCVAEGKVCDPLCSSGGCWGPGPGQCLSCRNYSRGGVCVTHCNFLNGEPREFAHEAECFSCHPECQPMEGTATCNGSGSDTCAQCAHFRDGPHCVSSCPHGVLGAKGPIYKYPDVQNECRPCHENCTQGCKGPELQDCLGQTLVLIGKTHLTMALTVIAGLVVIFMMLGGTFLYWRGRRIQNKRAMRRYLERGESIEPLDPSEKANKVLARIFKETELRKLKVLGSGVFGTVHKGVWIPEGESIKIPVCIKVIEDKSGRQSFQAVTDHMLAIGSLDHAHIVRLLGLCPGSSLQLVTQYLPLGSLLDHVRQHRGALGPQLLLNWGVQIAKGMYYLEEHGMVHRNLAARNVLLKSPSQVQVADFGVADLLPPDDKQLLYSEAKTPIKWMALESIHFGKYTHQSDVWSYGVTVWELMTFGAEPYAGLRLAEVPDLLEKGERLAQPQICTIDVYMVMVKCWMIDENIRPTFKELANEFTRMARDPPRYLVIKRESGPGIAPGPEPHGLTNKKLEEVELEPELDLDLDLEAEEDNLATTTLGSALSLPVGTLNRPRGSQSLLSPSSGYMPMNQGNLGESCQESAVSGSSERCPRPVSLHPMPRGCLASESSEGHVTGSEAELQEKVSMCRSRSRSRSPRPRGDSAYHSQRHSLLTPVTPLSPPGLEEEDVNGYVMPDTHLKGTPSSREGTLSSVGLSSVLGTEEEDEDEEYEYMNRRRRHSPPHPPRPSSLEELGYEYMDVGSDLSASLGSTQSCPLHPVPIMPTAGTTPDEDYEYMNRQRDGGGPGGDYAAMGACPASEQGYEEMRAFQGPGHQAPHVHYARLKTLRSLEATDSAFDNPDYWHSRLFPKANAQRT
UniProt Q15303, whole entry R711C: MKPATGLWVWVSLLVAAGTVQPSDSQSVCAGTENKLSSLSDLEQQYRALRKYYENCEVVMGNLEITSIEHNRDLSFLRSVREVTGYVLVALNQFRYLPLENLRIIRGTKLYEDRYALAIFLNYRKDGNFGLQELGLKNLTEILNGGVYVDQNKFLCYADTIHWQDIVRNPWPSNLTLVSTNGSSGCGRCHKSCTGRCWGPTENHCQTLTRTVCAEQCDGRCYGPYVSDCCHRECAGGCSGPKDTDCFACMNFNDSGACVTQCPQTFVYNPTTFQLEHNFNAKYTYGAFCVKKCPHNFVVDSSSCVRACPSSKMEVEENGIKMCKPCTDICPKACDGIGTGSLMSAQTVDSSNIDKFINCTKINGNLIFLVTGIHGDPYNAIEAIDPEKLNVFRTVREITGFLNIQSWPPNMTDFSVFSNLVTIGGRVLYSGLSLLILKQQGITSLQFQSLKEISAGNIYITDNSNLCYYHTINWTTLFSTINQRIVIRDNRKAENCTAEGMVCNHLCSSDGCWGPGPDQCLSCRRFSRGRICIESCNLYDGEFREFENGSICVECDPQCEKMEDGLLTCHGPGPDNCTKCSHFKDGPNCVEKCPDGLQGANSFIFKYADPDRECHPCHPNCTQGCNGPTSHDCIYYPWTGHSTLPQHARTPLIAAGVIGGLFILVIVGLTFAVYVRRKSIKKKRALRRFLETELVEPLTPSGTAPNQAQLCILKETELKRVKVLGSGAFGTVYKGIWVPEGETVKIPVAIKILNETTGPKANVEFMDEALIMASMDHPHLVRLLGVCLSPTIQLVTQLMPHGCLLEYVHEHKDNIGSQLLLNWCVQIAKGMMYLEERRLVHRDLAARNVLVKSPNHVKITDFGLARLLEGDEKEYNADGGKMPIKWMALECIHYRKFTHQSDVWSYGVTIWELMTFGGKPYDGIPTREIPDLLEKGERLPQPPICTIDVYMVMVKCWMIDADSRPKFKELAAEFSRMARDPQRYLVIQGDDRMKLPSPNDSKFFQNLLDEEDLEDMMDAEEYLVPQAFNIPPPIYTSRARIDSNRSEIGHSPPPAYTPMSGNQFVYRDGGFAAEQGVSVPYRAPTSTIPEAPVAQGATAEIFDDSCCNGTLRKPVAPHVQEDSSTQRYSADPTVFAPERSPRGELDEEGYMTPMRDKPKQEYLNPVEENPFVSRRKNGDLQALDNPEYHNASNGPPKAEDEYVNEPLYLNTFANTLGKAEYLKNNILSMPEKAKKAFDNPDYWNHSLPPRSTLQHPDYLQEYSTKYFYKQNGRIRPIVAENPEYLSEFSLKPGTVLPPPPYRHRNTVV
UniProt O75460: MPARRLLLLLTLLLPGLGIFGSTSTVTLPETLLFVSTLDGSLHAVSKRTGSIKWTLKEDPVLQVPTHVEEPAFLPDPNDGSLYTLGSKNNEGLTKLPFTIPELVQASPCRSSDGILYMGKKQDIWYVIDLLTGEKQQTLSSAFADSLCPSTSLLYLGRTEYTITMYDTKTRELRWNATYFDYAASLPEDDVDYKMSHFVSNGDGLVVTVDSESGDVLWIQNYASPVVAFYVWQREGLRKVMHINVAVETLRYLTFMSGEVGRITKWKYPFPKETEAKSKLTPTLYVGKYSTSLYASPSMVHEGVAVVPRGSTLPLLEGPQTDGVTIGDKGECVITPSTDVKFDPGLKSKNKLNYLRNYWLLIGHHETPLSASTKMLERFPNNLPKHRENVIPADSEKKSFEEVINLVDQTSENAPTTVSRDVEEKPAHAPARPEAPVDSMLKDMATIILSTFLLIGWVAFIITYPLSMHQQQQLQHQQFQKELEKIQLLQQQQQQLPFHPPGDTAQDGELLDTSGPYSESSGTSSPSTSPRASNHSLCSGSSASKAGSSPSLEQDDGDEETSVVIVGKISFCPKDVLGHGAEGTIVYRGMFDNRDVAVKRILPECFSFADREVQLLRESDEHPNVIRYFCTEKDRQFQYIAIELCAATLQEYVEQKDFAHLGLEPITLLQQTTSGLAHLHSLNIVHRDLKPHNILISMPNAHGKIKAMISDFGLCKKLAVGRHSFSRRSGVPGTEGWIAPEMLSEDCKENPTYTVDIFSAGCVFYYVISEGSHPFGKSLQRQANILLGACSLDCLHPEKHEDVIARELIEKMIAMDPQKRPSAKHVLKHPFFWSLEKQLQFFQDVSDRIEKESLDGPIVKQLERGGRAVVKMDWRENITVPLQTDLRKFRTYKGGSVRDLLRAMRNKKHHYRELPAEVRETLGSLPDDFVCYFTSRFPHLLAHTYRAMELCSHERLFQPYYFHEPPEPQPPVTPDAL
UniProt P11362, whole entry, looked up: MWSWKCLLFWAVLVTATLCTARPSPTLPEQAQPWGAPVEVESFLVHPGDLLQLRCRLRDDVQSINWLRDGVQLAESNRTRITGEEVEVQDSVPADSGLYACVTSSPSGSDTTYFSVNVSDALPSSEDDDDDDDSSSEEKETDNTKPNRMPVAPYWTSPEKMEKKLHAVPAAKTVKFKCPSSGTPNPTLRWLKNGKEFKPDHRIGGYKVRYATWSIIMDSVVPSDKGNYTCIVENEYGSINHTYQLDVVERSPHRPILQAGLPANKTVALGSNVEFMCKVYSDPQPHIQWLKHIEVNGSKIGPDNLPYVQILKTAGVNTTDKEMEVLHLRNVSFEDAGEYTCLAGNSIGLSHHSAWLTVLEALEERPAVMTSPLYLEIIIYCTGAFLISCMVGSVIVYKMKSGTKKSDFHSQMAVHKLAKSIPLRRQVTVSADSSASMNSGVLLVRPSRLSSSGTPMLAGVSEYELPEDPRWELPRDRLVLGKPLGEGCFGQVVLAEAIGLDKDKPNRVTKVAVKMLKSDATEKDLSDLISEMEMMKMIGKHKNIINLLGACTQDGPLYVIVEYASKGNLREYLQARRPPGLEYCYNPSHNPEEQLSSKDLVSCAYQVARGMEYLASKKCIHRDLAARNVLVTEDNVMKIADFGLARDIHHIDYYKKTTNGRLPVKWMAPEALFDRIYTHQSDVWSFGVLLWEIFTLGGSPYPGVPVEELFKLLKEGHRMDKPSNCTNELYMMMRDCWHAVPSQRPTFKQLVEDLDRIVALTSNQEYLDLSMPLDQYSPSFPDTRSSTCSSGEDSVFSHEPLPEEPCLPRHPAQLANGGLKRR
UniProt P49840: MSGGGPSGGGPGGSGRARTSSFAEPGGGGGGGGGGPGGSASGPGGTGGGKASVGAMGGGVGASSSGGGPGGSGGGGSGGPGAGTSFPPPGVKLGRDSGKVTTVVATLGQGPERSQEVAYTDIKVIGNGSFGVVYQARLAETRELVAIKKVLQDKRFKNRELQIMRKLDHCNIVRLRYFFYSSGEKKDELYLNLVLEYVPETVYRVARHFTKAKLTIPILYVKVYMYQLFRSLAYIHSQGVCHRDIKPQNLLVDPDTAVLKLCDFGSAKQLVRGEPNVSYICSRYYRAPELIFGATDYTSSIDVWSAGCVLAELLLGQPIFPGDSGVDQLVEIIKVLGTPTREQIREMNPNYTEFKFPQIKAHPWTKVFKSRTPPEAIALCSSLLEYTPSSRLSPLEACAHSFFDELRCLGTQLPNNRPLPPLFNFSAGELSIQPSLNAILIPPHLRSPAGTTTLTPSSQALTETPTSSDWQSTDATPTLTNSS
UniProt P53671: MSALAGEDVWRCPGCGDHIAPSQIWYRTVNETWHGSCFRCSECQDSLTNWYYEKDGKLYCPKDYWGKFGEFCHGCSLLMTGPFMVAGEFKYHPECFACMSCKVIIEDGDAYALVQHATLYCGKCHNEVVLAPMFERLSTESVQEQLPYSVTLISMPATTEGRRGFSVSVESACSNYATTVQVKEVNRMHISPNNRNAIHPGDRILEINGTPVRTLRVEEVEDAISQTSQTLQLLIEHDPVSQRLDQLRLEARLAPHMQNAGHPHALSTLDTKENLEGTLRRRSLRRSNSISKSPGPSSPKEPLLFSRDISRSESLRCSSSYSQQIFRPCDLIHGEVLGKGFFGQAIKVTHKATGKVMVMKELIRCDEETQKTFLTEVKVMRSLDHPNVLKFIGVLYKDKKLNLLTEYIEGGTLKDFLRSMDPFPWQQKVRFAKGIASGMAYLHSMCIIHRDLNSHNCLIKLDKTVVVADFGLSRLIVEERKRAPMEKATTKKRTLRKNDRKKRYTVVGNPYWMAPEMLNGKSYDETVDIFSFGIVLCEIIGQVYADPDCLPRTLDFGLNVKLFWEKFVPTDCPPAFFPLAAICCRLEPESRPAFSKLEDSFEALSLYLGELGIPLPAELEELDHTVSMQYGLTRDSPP

Assays:
Assay in all cases: number of time points (of 5) at which kinase-Nluc abundance scored as decreased, DMSO-normalised (count); higher = more persistent destabilization
Conditions in all cases: K562; 2-18 h
EGFR_L861Q = EGFR_L861Q (UniProt P00533)
EGFR_T790M = EGFR_T790M (UniProt P00533)
EPHA2 = EPHA2 (UniProt P29317)
ERBB3 = ERBB3 (UniProt P21860)
[1] = target: ERBB4_R711C (clone: ERBB4_mut) (UniProt Q15303)
ERN1 = ERN1 (UniProt O75460)
FGFR1 = FGFR1 (UniProt P11362)
FGFR2 = FGFR2 (UniProt P21802)
FGFR3 = FGFR3 (UniProt P22607)
FGR = FGR (UniProt P09769)
FLT3 = FLT3 (UniProt P36888)
FYN = FYN (UniProt P06241)
GSK3A = GSK3A (UniProt P49840)
HER2 = HER2 (UniProt P04626)
INSRR = INSRR (UniProt P14616)
IRAK3 = IRAK3 (UniProt Q9Y616)
JAK1 = JAK1 (UniProt P23458)
LCK = LCK (UniProt P06239)
LIMK1 = LIMK1 (UniProt P53667)
LIMK2 = LIMK2 (UniProt P53671)

SMILES	number of time points (EGFR_L861Q)	number of time points (EGFR_T790M)	number of time points (EPHA2)	number of time points (ERBB3)	number of time points [1]	number of time points (ERN1)	number of time points (FGFR1)	number of time points (FGFR2)	number of time points (FGFR3)	number of time points (FGR)	number of time points (FLT3)	number of time points (FYN)	number of time points (GSK3A)	number of time points (HER2)	number of time points (INSRR)	number of time points (IRAK3)	number of time points (JAK1)	number of time points (LCK)	number of time points (LIMK1)	number of time points (LIMK2)
Cc1cc(C(=O)NC(C)(C)C)cc(C#Cc2ccc3c4c(oc3c2)C(C)(C)c2cc(NS(C)(=O)=O)ccc2C4=O)n1 (10 µM)	0	0	0	0	0	0	0	0	0	0	0	2	0	3	0	0	0	0	1	0
CNC(=O)CNc1cnc2ccc(-c3ccc(OC)c(OC)c3)cc2n1 (10 µM)	0	0	0	0	0	0	0	0	0	0	0	0	0	0	0	0	0	0	0	0
Nc1ncnc2c1nc(Br)n2[C@@H]1O[C@@H]2COP(=O)(O)O[C@H]2[C@H]1O [8-Bromo-cAMP sodium salt] (10 µM)	0	0	0	0	0	0	0	0	0	0	0	0	0	0	0	0	0	0	0	0
CC(C)n1c([C@H](C)Nc2ncnc(N)c2C#N)cc2cccc(-c3ccc(=O)n(C)c3)c2c1=O (10 µM)	0	0	0	0	0	0	0	0	0	0	0	0	0	0	0	0	0	0	0	0
CCN1CCN(Cc2cnc(Nc3cc(-c4cc(F)c5nc(C)n(C(C)C)c5c4)c(F)cn3)nc2)CC1 (10 µM)	0	0	0	0	2	0	0	0	0	0	0	0	0	1	0	0	3	0	0	0
O=C(O)c1cc(N(Cc2ccccc2O)Cc2cc(O)ccc2O)ccc1O [Lavendustin A] (10 µM)	0	0	3	0	0	0	0	0	0	1	0	1	0	0	0	0	0	0	0	1
C=C1CCC[C@]2(C)C=C3OC(=O)C(C)=C3C[C@@H]12 [Atractylenolide I] (10 µM)	0	0	0	0	0	0	0	0	0	0	0	0	0	0	0	0	0	0	0	0
Cc1cc(O)c2c(c1)C(=O)c1cccc(O)c1C2=O [Chrysophanol] (2 µM)	0	0	0	0	0	0	0	0	0	0	0	0	0	0	0	0	0	0	0	0
CN1CCN(c2ccc(Nc3ncc4cc(C#N)c(=O)n(C5CCCC5)c4n3)cc2)CC1 (10 µM)	0	0	0	0	0	0	0	0	0	0	0	0	0	0	0	0	0	0	0	0
COc1ccc(Nc2ncc(C(F)(F)F)c(NC3CC3)n2)cc1OC (10 µM)	0	0	0	2	2	0	0	3	1	0	0	3	0	2	2	1	2	0	0	0
Cc1nn(C)cc1-c1nc2c(N3CCN(Cc4ccc(Cl)cc4)CC3)c(Cl)cnc2[nH]1 (10 µM)	0	0	0	0	0	0	0	0	0	0	0	0	0	0	0	0	0	0	0	0
Cc1cc(-n2c(=O)ccc3c[nH]c4nccc-4c32)ccc1F (10 µM)	0	0	0	0	0	0	0	0	0	0	0	3	0	0	0	0	0	0	0	0
COc1cc2ncnc(Oc3ccc(CC(=O)Nc4cnn(C(C)C)c4)cc3)c2cc1OC (10 µM)	0	0	0	0	0	0	0	0	0	0	0	0	0	0	0	0	0	0	2	2
Cn1ncc(NC(=O)c2nc(-c3c(F)cccc3F)sc2N)c1N1CC[C@@H](N)[C@H](F)CC1 (10 µM)	0	0	0	0	0	0	0	0	0	0	0	0	0	0	0	0	0	0	0	0
Cc1cc(C)cc(NC(N)=Nc2ccccc2C(F)(F)F)c1 (10 µM)	0	0	0	0	0	0	0	0	0	0	0	0	0	0	0	0	0	0	0	0
COc1cc2ncnc(Nc3ccc(O)c(Br)c3)c2cc1OC (10 µM)	0	0	0	1	0	0	0	0	0	0	0	0	0	0	0	0	0	0	0	0
Cc1ccc(NC(=O)Nc2cc(C(F)(F)F)ccc2F)cc1Nc1ccc2c(c1)NC(=O)/C2=C\c1ccc[nH]1 (2.5 µM)	0	0	0	0	0	0	1	0	0	0	0	0	0	0	0	0	0	0	0	0
CCC(=O)Nc1cccc(Oc2nc(Nc3ccc(N4CCN(C)CC4)cc3OC)ncc2Cl)c1 (10 µM)	0	0	0	0	0	0	0	0	0	0	0	0	0	0	1	0	0	0	0	0
c1nc2c(NC3CCCCC3)nc(Nc3ccc(N4CCOCC4)cc3)nc2[nH]1 [Reversine] (10 µM)	2	0	0	1	0	0	1	0	0	0	0	0	0	0	0	0	0	0	4	0
COC(=O)Nc1ccc(-c2nc(N3CCOCC3)c3cnn(C4CCN(Cc5cccnc5)CC4)c3n2)cc1 (10 µM)	0	0	0	0	0	0	0	0	0	0	0	0	0	0	0	0	0	0	0	0
C=CC(=O)N1CCC[C@@H](n2nc(-c3ccc(Oc4ccccc4)cc3)c3c(N)n[nH]c(=O)c32)C1 [BTK inhibitor 17] (10 µM)	0	0	0	0	0	0	0	0	0	0	0	0	0	0	0	0	0	0	0	0
Nc1ncc(-c2ccnc(Nc3ccncc3)n2)c(CC2CC2)n1 (10 µM)	2	0	0	0	0	0	0	1	0	0	0	2	0	0	0	0	3	0	0	0
CC(O)(C#Cc1ccc2c(c1)N(c1nc(N)ncc1Cl)CC2)c1nccs1 (stereo not given) (2.5 µM)	0	0	0	0	0	0	0	0	0	0	0	0	0	0	0	0	0	0	0	0
CC(C)(C)Cc1[nH]nc2c1[C@@](C)(c1ccccc1)C1=C(CC(C)(C)CC1=O)N2 (10 µM)	0	0	0	0	0	0	0	0	0	0	0	0	0	0	0	0	0	0	0	0

Retrieved one by one from the entries so far, 2 records:
SMILES	number of time points (EGFR_L861Q)	number of time points (EGFR_T790M)	number of time points (EPHA2)	number of time points (ERBB3)	number of time points [1]	number of time points (ERN1)	number of time points (FGFR1)	number of time points (FGFR2)	number of time points (FGFR3)	number of time points (FGR)	number of time points (FLT3)	number of time points (FYN)	number of time points (GSK3A)	number of time points (HER2)	number of time points (INSRR)	number of time points (IRAK3)	number of time points (JAK1)	number of time points (LCK)	number of time points (LIMK1)	number of time points (LIMK2)
COc1cc2ncnc(Oc3ccc(CC(=O)Nc4cnn(C(C)C)c4)cc3)c2cc1OC (10 µM)	0	0	0	0	0	0	0	0	0	0	0	0	0	0	0	0	0	0	2	2
Cc1cc(O)c2c(c1)C(=O)c1cccc(O)c1C2=O [Chrysophanol] (2 µM)	0	0	0	0	0	0	0	0	0	0	0	0	0	0	0	0	0	0	0	0
